The whole screen tested about 1,900 compounds, of which fewer than 10 were called active. Inconclusive means that the source gave no clear call. Such entries were picked first, then a sample of the others.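 How the source made its calls: active means Green signal of the normal strain falls at least twice as much as red signal of the resistant mutant, with overall culture growth loss under a set limit; inconclusive means no clear call, values can overlap the other calls; inactive means the rest.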
Assay: wild-type E. coli growth inhibition versus h38 humanized strain – h38 mutant RFP, wild-type GFP, cherry-pick, dose response (AID 977622)
Details: E. coli WT ribosome GFP fluorescence, mixed culture, 24 h; at 50 µM (top of the series)

Structure (SMILES)	activity change, negative = inhibition
CCCCCCCNC(=O)c1ccc(N2CCC3(CC2)OCCO3)c([N+](=O)[O-])c1	inactive: -6.62
O=C(NCc1ccccc1)c1ccc(-c2cn[nH]c2)c2ccoc12	inactive: 2.04
Cc1ccc(NC(=O)c2c(C)noc2-c2snnc2C)cc1	inconclusive: -18.4
CCN(CC)CCN(C(=O)C1CCCCC1)c1nc2cc3c(cc2s1)OCO3	inconclusive: -20.7
COc1cccc(NC(=O)N(C)C[C@H]2Oc3ncc(C#Cc4cccnc4)cc3C(=O)N([C@H](C)CO)C[C@H]2C)c1	inactive: 4.81
COC(=O)c1ccc2nc(-c3cccc(Br)c3)c(Cc3ccsc3)n2c1	inconclusive: 1.64
O=C(c1cc(COc2c(F)cccc2F)on1)N1C[C@H]2CC[C@H]1C2	inconclusive: -14
O=C(Nc1cccc(S(=O)(=O)c2cccc(NC(=O)C3CC3)c2)c1)C1CC1	inactive: 6.73
c1ccc(Sc2ncnc3ccccc23)cc1	inconclusive: -5.44
O=C(O)CC1(CC(=O)NCc2ccc(-c3cccs3)cc2)CCCCC1	inconclusive: -19
COc1ccc(CC(=O)NCc2csc(-c3cccs3)n2)cc1OC	inactive: -4.87
COc1cccc(C(NC(C)=O)c2nc(-c3ccccc3OC)cs2)c1 (centres undefined)	inconclusive: -17
O=C(Nc1cc(S(=O)(=O)N2CCOCC2)ccc1N1CCOCC1)c1ccc([N+](=O)[O-])s1	inactive: -1.44
Cc1cc(C)n(CC(O)COc2ccc3ccccc3c2)n1 (centres undefined)	inactive: -4.62
Clc1ccccc1-c1nnc2sc(CCc3ccccc3)nn12	inconclusive: -29.2
CCN(CC)C(=O)c1sc2nc(-c3ccccc3)ccc2c1N	inconclusive: -20.3
COc1ccccc1Cn1c(=S)[nH]c2ccc(F)cc2c1=O	inconclusive: 2.59
Cc1ccccc1OS(=O)(=O)c1cccc([N+](=O)[O-])c1	inconclusive: -35.9
Cc1noc(C)c1NC(=O)Nc1ccc2c(c1)C(=O)N([C@@H](C)CO)C[C@H](C)[C@@H](CN(C)C(=O)Nc1ccc3c(c1)OCO3)OCCCC[C@H](C)O2	inactive: 2.39
COc1ccc2c(c1)c1ncn(Cc3ccccn3)c(=O)c1n2C	inconclusive: 1.1
CC(=O)Nc1ccc(OCc2nnc(-c3ccccc3)o2)cc1	inconclusive: -5.43
Cc1noc(C)c1NC(=O)Nc1ccc2c(c1)C(=O)N([C@H](C)CO)C[C@@H](C)[C@@H](CN(C)C(=O)Nc1ccc3c(c1)OCO3)OCCCC[C@@H](C)O2	inactive: 15.5
CN(C)S(=O)(=O)N1CCN(c2ccccc2Cl)CC1	inactive: -6.78
N#Cc1ccsc1NC(=O)CSc1nnc(NC2CC2)s1	inconclusive: -8.4
c1ccc(-c2sc3ccccc3c2-c2ccc(OCCN3CCCCC3)cc2)cc1	inconclusive: 14.4
C[C@@H]1CN([C@@H](C)CO)C(=O)CCCn2nncc2CO[C@H]1CN(C)C(=O)Nc1cccc(C(F)(F)F)c1	inactive: -6.13
O=C1c2ccccc2CSc2c(O)cccc21	inactive: -3.21

Structure (SMILES)	activity change, negative = inhibition
CN(C)C(=O)c1ccc(NC(=O)CSc2nc3ccccc3[nH]2)cc1	inconclusive: -17
O=C1c2ccccc2C(c2nnnn2Cc2ccccc2)N1Cc1cccc(F)c1 (centres undefined)	inconclusive: 2.15
O=C(Nc1cccc(Cl)c1)N1C[C@@H]2[C@H](c3ccccc31)[C@H](CO)N2C(=O)c1cccnc1	inconclusive: -30.2
Cc1cccc(CN2C(=O)c3ccccc3Sc3ccc(C(=O)NCCN4CCOCC4)cc32)c1	inconclusive: -14.4
CC(C)n1nnnc1C1c2ccccc2C(=O)N1CCOc1ccccc1 (centres undefined)	inactive: -1.6
C[C@@H]1CCCCO[C@@H](CN(C)C)[C@@H](C)CN([C@H](C)CO)C(=O)c2cc(NC(=O)Nc3cccc4ccccc34)ccc2O1	inconclusive: -4.86
Cc1ccc(NC(=O)C[n+]2cc(-c3ccccc3)n3c2CCC3)c(C)c1	inconclusive: 0.995
C=CCNc1ccc2c(c1)OC[C@H](CC(C)C)NS2(=O)=O	inactive: -6.84
C[C@]12C(=O)N(c3ccc(F)cc3)C(=O)N1[C@@H]1c3ccccc3OC[C@@H]1[C@H]2c1ccccc1	inactive: -4.48
COc1cccc(S(=O)(=O)N2CCCCN3[C@H](CO)[C@@H](c4ccc(C#CC(C)C)cc4)[C@@H]3C2)c1	inconclusive: -5.04
NC(=O)c1ccsc1NC(=O)COC(=O)CSc1ccc(Cl)cc1	inconclusive: 3.16
O=C(Nc1cccnc1)c1ccc([N+](=O)[O-])o1	inconclusive: -3.4
CCCOC(=O)c1ccc(NC(=O)c2nc3nc(C)cc(C)n3n2)cc1	inconclusive: 1.44
Cc1cc(Br)cn2c(Cc3cccc(Cl)c3)c(-c3ccco3)nc12	inconclusive: -0.921
COc1ccccc1NC(=O)CSc1nccn1Cc1ccc(F)cc1	inactive: -9.12
Cc1cccc(C)c1NC(=O)C1(C)CSCC(=O)N1CCOc1ccccc1 (centres undefined)	inconclusive: -11.9
COc1ccc(C2CC(=O)CCN2S(=O)(=O)c2ccc(C)cc2)cc1 (centres undefined)	inconclusive: -8.76
COc1ccc(CCNc2nc(-c3ccncc3)cs2)cc1OC	inconclusive: -24.1
CCn1cc(Cl)c(C(=O)Nc2cccc(C(F)(F)F)c2)n1	inconclusive: -3.16
Cc1ccc(NC(=O)c2ccc(Br)o2)cc1S(=O)(=O)N(C)C	inconclusive: -9.23
O=C1c2ccccc2C(c2nnnn2C2CCCCC2)N1CCc1ccc(O)cc1 (centres undefined)	inconclusive: -7
NS(=O)(=O)c1cc(C(=O)OCC(=O)Nc2ccccc2[N+](=O)[O-])ccc1Cl	inactive: -2.97
CCn1c(COc2cccc(OC)c2)nnc1SCC(=O)Nc1cc(OC)ccc1OC	inactive: -1.95
c1ccc(SCc2nc3ccccc3s2)nc1	inactive: -0.196
O=C(c1cccs1)c1sccc1Cc1ccccc1	inconclusive: -18.4
Cc1cc2nc(-c3ccc4c(c3)CCC4)ccn2n1	inconclusive: -15.4
COc1cc(-c2ccc(N3C(c4ccsc4)=Cc4ccc(F)cc4C3c3c[nH]c4ccc(C#N)cc34)cc2)cc(OC)c1OC (centres undefined)	inactive: -2.68

A stretch from further up:
Structure (SMILES)	activity change, negative = inhibition
CCn1cc(Cl)c(C(=O)Nc2cccc(C(F)(F)F)c2)n1	inconclusive: -3.16
Cc1ccc(NC(=O)c2ccc(Br)o2)cc1S(=O)(=O)N(C)C	inconclusive: -9.23

Reference: PubChem BioAssay AID977622 (Broad Institute, 2014)
